Laboratory results published in article PMC12873737.
No constants are given. Whether binding was seen depends on the method and setting. Binding seen in cells or lysates may run through a third protein. Here binding means that the protein was enriched with, or labelled near, the bait; the list need not be complete. Sequences can lack the tags named with a protein.

Amino acid sequences for entries named in this document (tags omitted).
UniProt Q9R1A8: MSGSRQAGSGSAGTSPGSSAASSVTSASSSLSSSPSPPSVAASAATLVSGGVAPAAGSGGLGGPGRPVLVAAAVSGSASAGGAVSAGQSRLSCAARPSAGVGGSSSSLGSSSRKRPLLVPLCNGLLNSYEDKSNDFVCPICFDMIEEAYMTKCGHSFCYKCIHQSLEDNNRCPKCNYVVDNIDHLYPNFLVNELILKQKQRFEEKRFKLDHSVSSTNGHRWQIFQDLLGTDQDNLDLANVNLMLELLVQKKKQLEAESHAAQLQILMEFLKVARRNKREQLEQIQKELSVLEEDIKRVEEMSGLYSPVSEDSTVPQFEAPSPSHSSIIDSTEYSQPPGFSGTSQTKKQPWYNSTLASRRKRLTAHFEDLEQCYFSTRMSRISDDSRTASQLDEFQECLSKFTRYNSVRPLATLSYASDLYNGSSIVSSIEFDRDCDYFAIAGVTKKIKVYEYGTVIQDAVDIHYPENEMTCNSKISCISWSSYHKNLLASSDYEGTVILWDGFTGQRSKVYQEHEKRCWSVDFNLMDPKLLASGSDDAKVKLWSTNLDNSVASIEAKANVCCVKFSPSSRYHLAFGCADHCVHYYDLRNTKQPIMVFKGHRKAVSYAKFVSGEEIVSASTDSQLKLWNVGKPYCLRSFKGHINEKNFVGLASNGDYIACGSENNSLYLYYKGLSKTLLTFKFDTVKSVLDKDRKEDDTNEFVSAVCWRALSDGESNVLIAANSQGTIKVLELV

Target: T1, HA-Rhbdf2 (rhomboid 5 homolog 2), expressed in AML12 cells (UniProt Q80WQ6)
T1 sequence: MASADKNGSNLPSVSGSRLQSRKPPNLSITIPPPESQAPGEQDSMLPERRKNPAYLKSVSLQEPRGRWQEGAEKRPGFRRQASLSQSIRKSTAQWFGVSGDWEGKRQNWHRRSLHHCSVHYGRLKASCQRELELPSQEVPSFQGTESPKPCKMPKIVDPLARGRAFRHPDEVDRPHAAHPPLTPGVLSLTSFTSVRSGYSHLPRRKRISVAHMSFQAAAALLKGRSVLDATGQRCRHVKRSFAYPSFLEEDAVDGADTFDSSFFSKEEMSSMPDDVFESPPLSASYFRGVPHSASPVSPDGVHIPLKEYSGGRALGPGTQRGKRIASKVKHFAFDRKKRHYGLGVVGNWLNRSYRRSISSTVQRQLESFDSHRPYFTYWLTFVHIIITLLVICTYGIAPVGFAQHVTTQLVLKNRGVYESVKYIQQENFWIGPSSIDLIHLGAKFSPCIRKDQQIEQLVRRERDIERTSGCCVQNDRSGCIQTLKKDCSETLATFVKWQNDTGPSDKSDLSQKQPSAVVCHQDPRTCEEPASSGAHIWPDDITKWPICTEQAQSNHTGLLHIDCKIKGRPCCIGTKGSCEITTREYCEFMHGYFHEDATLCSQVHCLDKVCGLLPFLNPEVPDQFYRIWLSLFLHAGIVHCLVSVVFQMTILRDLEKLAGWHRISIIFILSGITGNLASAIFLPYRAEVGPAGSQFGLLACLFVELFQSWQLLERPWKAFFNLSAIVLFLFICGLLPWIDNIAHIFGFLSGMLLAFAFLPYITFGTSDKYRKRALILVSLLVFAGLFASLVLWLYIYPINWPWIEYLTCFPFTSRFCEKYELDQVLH
Test: affinity purification with mass spectrometry; immunoprecipitation of Rhbdf2-interacting proteins from Rhbdf2-overexpressing and control AML12 stable cell lines after H/R; SDS-PAGE (10% gel), silver staining, LC-MS/MS

Constitutive photomorphogenic 1 (Cop1), endogenous in AML12 cells (from UniProt Q9R1A8 1-733) (enzyme)
binding: binds
